## Screening data, single-dose tests

From ChEMBL document CHEMBL3988442, “University of Dundee, Small-Polar-MMV Screening Library” (2021).

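Whole-cell growth test on Mycobacterium tuberculosis, read after 4 days in a medium based on cholesterol and the lipid DPPC; the read-out is not stated. Compounds at 500 µM. Direction is inferred from retests: higher values go with more growth inhibition. Size under these conditions: about 18,000 compounds, about 900 of them at 50% or above in at least one test.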

Each number is a percent effect as filed. The controls that fix the scale are not given in the record; negative values are as filed. The compounds are a random part of those screened.

structure | Percent Effect
N#Cc1ccccc1CN1CCC2(CC1)[C@H](O)C[C@@H]2O | 5.625
CN(Cc1cc(Cl)cn1C)C(=O)c1cc(O)cc(O)c1 | 15.57
Cc1n[nH]c(C)c1CN1CCCC(O)(CO)CC1 (configuration not stated) | 7.212
COC(=O)N1CCN(c2ccncc2N)CC1 | 20.56
CC(C)c1nnc(NC(=O)N(C)C)s1 | 1.03
COc1cccc(CNCCCS(C)(=O)=O)c1OC | 24.35
CC(CN)N(C)C(=O)c1ccccc1Br (configuration not stated) | -4.184
NC(=O)Nc1cccc(CNS(=O)(=O)c2cccs2)c1 | 10.58
NC(=O)CC(NCc1ccc(Br)o1)C1CCOCC1 (configuration not stated) | -28.5
NC(=O)C1CCCN(S(=O)(=O)Cc2ccc(Cl)cc2)C1 (configuration not stated) | 8.986
CCOC(=O)N1CCC(N2CCC(C(N)=O)CC2)CC1 | 10.25
COCC(C)(O)C(=O)N(C)Cc1ccccc1 (configuration not stated) | 12.08
Cc1ncc(CN2CCn3ccnc3C2)s1 | -10.52
Cn1cc(C(=O)NCCc2ccccc2)ccc1=O | -5.121
COCC1CCN(C(=O)CCC2CCNCC2)CC1 | 2.765
CCNCC(=O)Nc1ccc(N2CCOCC2)cc1 | -2.45
CCN(Cc1cc2cc(C)ccc2nc1O)C(C)=O | 13.4
Cc1cccc2nc(CN(C)CC(O)CO)[nH]c12 (configuration not stated) | 9.829
CN(c1ccc(O)cc1)S(=O)(=O)c1ccco1 | 38.78
CN(CCCO)C(=O)c1ccc(Cl)cc1F | 8.53
Cc1nc(NCCc2cc[nH]n2)cc(C2CC(O)C2)n1 (configuration not stated) | -8.876
COC(C)(C)c1nsc(N)n1 | -0.7732
CCOCC(=O)N(C)Cc1cccc2cnccc12 | 11.13
CSC(C)(C)CNC(=O)NC1CCCS(=O)(=O)C1 (configuration not stated) | -1.415
CCNC(=O)COc1cccc(NC(=O)NC)c1 | 5.214
NC(=O)C1CCN(c2ccnc3ccc(Cl)cc23)C1 (configuration not stated) | -4.126
Cc1cccc(CS(=O)(=O)c2nncn2C)c1 | -12.49
Cc1cnc(C(=O)Nc2ncccc2O)cn1 | -1.897
COCCn1nc(C(=O)Nc2ncc(C)s2)ccc1=O | -21.34
CCN(CC(N)=O)C(=O)CC(C)(O)c1ccccc1 (configuration not stated) | -5.73
Cc1noc(C)c1CN(C)Cc1cc2n(n1)CCNC2 | 11.65
CN1CCN(c2ccc3ccccc3n2)CC(O)C1 (configuration not stated) | 34.52
COCCn1ccnc1C1CCCN(C(=O)CSC)C1 (configuration not stated) | 2.309
Nc1cnn(Cc2ccccn2)c1 | 51.7
O=C(CC1CCCN1)c1ccco1 (configuration not stated) | -17.41
CCNC(=O)C(C)NC(=O)NCc1ccccc1OC (configuration not stated) | -4.003
Cc1nnc(C(C)NC(=O)c2ccc(CO)cc2)o1 (configuration not stated) | 1.801
CC(C)N1CCC(C(=O)N(C)Cc2nccn2C)CC1 | 8.476
c1c(N2CCCC2)nnc2c1CNCC2 | -14.47
O=C(Nc1ccccc1)N(CCCO)C1CC1 | 19.67
CN(Cc1ccsc1)C(=O)CN1CCN(CCO)CC1 | 17.41
O=C(Cn1cnnn1)Nc1cccc(-n2cccc2)c1 | 7.999
Cn1cc(Cl)c(C(=O)N[C@H]2C[C@@H]3OCC[C@H]23)n1 | 13.73
CC(NC(=O)C1(N)Cc2ccccc2C1)C1CC1 (configuration not stated) | -16.98
CCn1cnnc1CCNC(=O)c1cnn(C(C)C)c1 | 6.913
COC(=O)C1CCCCN1C(=O)c1cccn1C (configuration not stated) | 10.28
CN(CCc1ccncc1)C(=O)Cc1cccnc1 | -1.722
N#Cc1cccnc1NCC1COc2ccccc2O1 (configuration not stated) | -31.56
NC(=O)C(Sc1nnc[nH]1)c1ccc(Br)cc1 (configuration not stated) | 40.81
COCC(C)(O)C(F)(F)F (configuration not stated) | -12.97
O=C(NCCc1ccc(F)cc1F)NCC1(CO)CC1 | -2.212
CC(c1cccc(Br)c1)N1CCNC(=O)CC1 (configuration not stated) | 23.73
Cc1nc(CN)ccc1C(C)O (configuration not stated) | -26.34
CCN1CCN(C(=O)c2cccnc2SC(C)C)CC1 | 8.319
CCNS(=O)(=O)C1CCN(Cc2cccnc2C)C1 (configuration not stated) | 13.56
O=S(=O)(NCCO)N1CCCCC1 | -1.484
CN(C)C(CNC(=O)c1nccnc1N)c1ccsc1 (configuration not stated) | -1.952

The first 6 entries again:

structure	Percent Effect
N#Cc1ccccc1CN1CCC2(CC1)[C@H](O)C[C@@H]2O	5.625
CN(Cc1cc(Cl)cn1C)C(=O)c1cc(O)cc(O)c1	15.57
Cc1n[nH]c(C)c1CN1CCCC(O)(CO)CC1 (configuration not stated)	7.212
COC(=O)N1CCN(c2ccncc2N)CC1	20.56
CC(C)c1nnc(NC(=O)N(C)C)s1	1.03
COc1cccc(CNCCCS(C)(=O)=O)c1OC	24.35